Results published in EP1574569A1, “THREE-DIMENSIONAL STRUCTURE OF LIPOCALIN-TYPE PROSTAGLANDIN D SYNTHASE AND UTILIZATION OF THE SAME” (RIKEN, priority 2002, dated 2004).
At least one structure is not confirmed: it was looked up by name or label, or the drawing left a doubt.

Molecular target: T1, L-PGDS (Mus musculus, UniProt O09114)
T1 sequence (O09114 25-189): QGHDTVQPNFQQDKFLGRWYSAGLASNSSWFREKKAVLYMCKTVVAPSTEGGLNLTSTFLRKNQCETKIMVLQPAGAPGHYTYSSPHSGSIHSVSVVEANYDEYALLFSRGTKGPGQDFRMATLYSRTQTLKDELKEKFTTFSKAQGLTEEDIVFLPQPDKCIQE
Assay: Binding of retinoids to L-PGDS

SMILES: CC1=C(/C=C/C(C)=C/C=C/C(C)=C/C(=O)O)C(C)(C)CCC1 [retinoic acid]
- binding to L-PGDS (in words): binds
